Results reported in publication PMC11009412, “Pathogenic mutations of human phosphorylation sites affect protein–protein interactions” (Nature Communications, 2024).
Results are given in words; binding and its absence hold for the method and conditions named. Some entries that bind do so weakly or less than the wild type.

Amino acid sequences for entries named in this document (tags omitted). A change or cut given only in a name is not applied to a line headed by its entry.
UniProt Q8WUU5: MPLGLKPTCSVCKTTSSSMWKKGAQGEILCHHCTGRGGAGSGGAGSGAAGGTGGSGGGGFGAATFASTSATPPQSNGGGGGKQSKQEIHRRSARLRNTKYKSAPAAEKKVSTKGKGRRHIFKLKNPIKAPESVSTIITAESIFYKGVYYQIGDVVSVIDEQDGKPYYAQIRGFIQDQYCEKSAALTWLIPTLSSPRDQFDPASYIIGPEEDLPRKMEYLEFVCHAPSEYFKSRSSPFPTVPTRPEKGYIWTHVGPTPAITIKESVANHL

T1: human recombinant 14-3-3 epsilon (YWHAE) (human), P62258
T1 chain: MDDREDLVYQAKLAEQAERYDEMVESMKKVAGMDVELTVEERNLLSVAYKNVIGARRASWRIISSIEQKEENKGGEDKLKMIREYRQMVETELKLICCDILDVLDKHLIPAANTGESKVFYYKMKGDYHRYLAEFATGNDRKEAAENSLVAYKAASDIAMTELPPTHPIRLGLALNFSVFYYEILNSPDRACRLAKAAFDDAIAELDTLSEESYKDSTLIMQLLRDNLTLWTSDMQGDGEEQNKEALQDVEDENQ

B1: human recombinant 14-3-3 epsilon (YWHAE), P62258 1-255 (protein)
chain: T1 chain
B2: GATAD1 S102P peptide (soluble, ITC) (peptide, UniProt Q8WUU5 95-109)
peptide: LRNTKYKPAPAAEKK
modifications: N-terminus in amine form; C-terminus in amide form
B3: GATAD1 S102D peptide (soluble, ITC) (peptide, UniProt Q8WUU5 95-109)
peptide: LRNTKYKDAPAAEKK
modifications: N-terminus in amine form; C-terminus in amide form
B4: GATAD1 S102E peptide (soluble, ITC) (peptide, UniProt Q8WUU5 95-109)
peptide: LRNTKYKEAPAAEKK
modifications: N-terminus in amine form; C-terminus in amide form

How the values were obtained:
[1] = molecular target: T1, human recombinant 14-3-3 epsilon …; test: crystal structure; 14-3-3ε (13 mg/ml) with the GATAD1 phosphopeptide in 1:2 molar ratio; sitting drop, 19% PEG 3350, 0.35 M NaBr, 0.1 M BisTris-Propane pH 6.5, 20 °C; space group R32, 2 complexes per asymmetric unit; both purified; details: remark: other sources report otherwise
[2] = molecular target: human recombinant 14-3-3 epsilon (YWHAE) (human) (UniProt P62258); test: condition: 400 µM peptide in the syringe, 25 µM 14-3-3ε in the chamber; ITC; PEAQ-ITC, 18 °C, 400 µM peptide in the syringe, 25 µM 14-3-3ε in the reaction chamber; 20 mM HEPES pH 7.0, 150 mM NaCl, 2 mM DTT; both purified

Binder	binding [1]	binding [2]
B1	binds	–
B2	–	no binding
B3	–	no binding
B4	–	no binding
